Results on 37 molecules are retold here after PubChem BioAssay AID2685 (National Center for Advancing Translational Sciences (NCATS), 2010).

Some of the results follow. These are further read-outs of the screen, such as a control signal, another cell line or another target. No call is given for them. Compounds called inactive in the main read-out are mostly missing here. Potencies come from curve fits of mixed quality, noted in brackets.

The assay can be described thus: qHTS Assay for Lipid Storage Modulators in Drosophila S3 Cells.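 For cell number change: cells counted by Cell Tracker Red CMTPX staining in the red channel.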 The conditions noted are these: BODIPY lipid droplet fluorescence, 18-24 h; for cell number change: measured here: cell count max response, cells fed with added oleic acid. The procedure, abridged: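 Laser-scanning cytometry quantifies lipid droplet accumulation (500–530 nm total intensity; droplet/cell object ratio) in oleic acid-fed (400 uM added) Drosophila S3 cells treated with a concentration series. 20 uM Triacsin C defined 100% inhibition.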
In general terms: qHTS replaces the single test concentration by a dilution series.

Setting [1] is: measured here: cell number channel AC50, cells fed with added oleic acid.
[2] abbreviates: measured here: lipid fluorescence (Fed channel) AC50, cells fed with added oleic acid.

Take `CCCOC(=O)c1ccc(-[n+]2c(-c3ccccc3)cc(-c3ccccc3)cc2-c2ccccc2)cc1`: the cell number change is -58.9%. The AC50 under setting [1] was 18.4 µM [falling, partial curve]. Also, under setting [2], the AC50 is 0.164 µM [falling, full curve, poor fit].

Turning to `Cc1cccc(N2C(=O)/C(=C/c3ccc(N4CCN(C)CC4)o3)C(=O)NC2=S)c1C`, the cell number change came out at 7.69%. For the same molecule, the AC50 under setting [2] was 0.146 µM [falling, full curve].

Take `Cn1cc(C=C(C#N)C#N)c2ccccc21`: the cell number change came out at 29.7%. Further, the half-maximal activity concentration (AC50) under setting [1] was 2.59 µM [rising, full curve, poor fit].

Consider `CN1C(=O)C(=Cc2ccccc2OCc2ccc(Cl)cc2)C(=O)N(C)C1=O`, for which the cell number change amounted to 41.3%. The AC50 under setting [1] is 29.1 µM [rising, single point]. Besides, the AC50 under setting [2] was 0.146 µM [falling, full curve].

With `O=[N+]([O-])c1ccc(CN2CC=C(c3ccccc3)CC2)cc1`, the cell number change was 51.3%. In addition, the half-maximal activity concentration (AC50) under setting [1] is 6.51 µM [rising, full curve].

Turning to `c1ccc(P(c2ccccn2)c2ccccn2)cc1`, the cell number change turned out to be 25.8%. The AC50 under setting [1] is 2.91 µM [rising, full curve, poor fit]. For the same molecule, the AC50 under setting [2] is 6.51 µM [rising, single point].

On to `Cc1cc(OCC(=O)N[C@@H](Cc2ccccc2)C(=O)O)c2c3c(c(=O)oc2c1)CCCC3`, for which the cell number change is -0.872%. Moreover, the AC50 under setting [2] was 0.116 µM [falling, full curve, poor fit].

In the case of `Cc1sc2c(c1C)C(c1ccc(C(C)(C)C)cc1)=NCC(=O)N2CC(=O)Nc1nccs1`, the cell number change was -26.6%. Further, under setting [2], the AC50 was 23.1 µM [falling, single point].

For `CN1C(=O)C(=Cc2sc(=O)n(-c3ccccc3)c2N2CCCCC2)C(=O)N(C)C1=O`, the cell number change is -7.15%. The AC50 under setting [2] was 3.26 µM [falling, full curve, poor fit].

Consider `CN(C)CC1CCCCC1OC(=O)Cc1ccc(Cl)c([N+](=O)[O-])c1` (centres undefined), for which the cell number change stood at 18.3%. Besides, the AC50 under setting [2] is 29.1 µM [rising, single point].

In the case of `COC(=O)C1=C(c2ccccc2OCc2ccccc2)C[C@@H]2CC[C@H]1N2C(=O)NCc1ccc(C(C)(C)C)cc1`, the cell number change was determined as 3.25%. Further, under setting [2], the AC50 is 6.51 µM [rising, single point].

With `CCN1CCN(C(=O)COc2ccc(S(=O)(=O)N(C)Cc3ccccc3)cc2)CC1`, the cell number change is -31.6%. In addition, under setting [1], the AC50 is 29.1 µM [falling, single point].

On to `COc1cc(OC)cc(C(=O)NC(=S)N2C[C@H]3C[C@H](C2)c2cccc(=O)n2C3)c1`, for which the cell number change was 6.47%. Under setting [2], the AC50 was 6.51 µM [rising, single point].

In the case of `Cn1cc[n+](C)c1P(=S)(c1ccccc1)c1ccccc1`, the cell number change was -10.2%. For the same molecule, the concentration at half-maximal activity (AC50) under setting [1] was 0.058 µM [rising, single point].

Take `COc1ccc(CC2c3cc(OC)c(OC)cc3CCN2C)cc1O` (centres undefined): the cell number change is 31.7%. Besides, the AC50 under setting [1] was 32.6 µM [rising, single point].

`CC(C)c1cccc(O)c(=O)c1`: the AC50 under setting [1] is 1.84 µM [falling, partial curve].

Regarding `N#CC(C#N)=Cc1ccc(-c2ccccc2)o1`, the cell number change was -14.1%.

Consider `COc1ccc(CN2C(=O)CC(=O)NC2=O)cc1`, for which the cell number change was -0.105%.

For `CN1CCCC(C(O)(c2ccccc2)c2ccccc2)C1` (centres undefined), the cell number change was 27.6%. For the same molecule, the AC50 under setting [1] is 0.411 µM [rising, partial curve, poor fit].

On to `Cc1cc(/C=C2\C(=O)NC(=O)N(c3ccc(Cl)cc3)C2=O)c(C)n1-c1cccc(C(=O)O)c1`, for which the cell number change was found to be 32.6%. The AC50 under setting [1] is 25.9 µM [rising, partial curve, poor fit]. Also, under setting [2], the AC50 is 32.6 µM [rising, single point].

On to `CCOc1ccc(CC2(CCc3ccncc3)C(=O)NC(=O)NC2=O)cc1`, for which the cell number change turned out to be 55.4%. Besides, the AC50 under setting [1] was 20.6 µM [rising, partial curve, poor fit].

For `Cc1cc([P+](=O)O)c(C)n1-c1ccc(Br)cc1`, the cell number change is -0.0764%. The AC50 under setting [2] was 0.461 µM [falling, full curve].

Take `CCOc1cccc(CNC2CN3CCC2CC3)c1` (centres undefined): the cell number change amounted to 18.4%. Moreover, the AC50 under setting [2] is 7.31 µM [falling, partial curve].

Take `O=C1C2CCCN2C(c2cccs2)N1c1ccccn1` (centres undefined): the cell number change is 24.5%. Also, the AC50 under setting [2] is 9.2 µM [rising, partial curve, poor fit].

In the case of `COc1cc(CN2CCNCC2)cc(OC)c1OC`, the cell number change stood at 9.33%. Also, the AC50 under setting [2] is 0.164 µM [rising, full curve, poor fit].

For `Cc1nc2ccccc2c(=O)n1-c1ccc([N+](=O)[O-])cc1`, the cell number change is -17.3%. Also, under setting [2], the AC50 is 5.8 µM [rising, single point].

`CCN(CC)CCCN=Cc1c(O)n(-c2cccc(C)c2C)c(=O)[nH]c1=O`: the cell number change was -1.38%. In addition, the AC50 under setting [2] was 16.4 µM [falling, single point].

For `Cc1cc(OCC(=O)NCc2ccc(S(N)(=O)=O)cc2)c2c3c(c(=O)oc2c1)CCC3`, the cell number change is 3.67%. Further, under setting [2], the AC50 was 5.17 µM [falling, full curve].

`CC(C)[C@]12O[C@H]1[C@@H]1O[C@]13[C@]1(O[C@H]1C[C@H]1C4=C(CC[C@@]13C)C(=O)OC4)[C@@H]2O`: the cell number change is -38.7%. Also, under setting [1], the AC50 is 0.82 µM [falling, full curve]. The AC50 under setting [2] was 0.651 µM [falling, full curve].

With `CCN(CC)P(c1n(C)cc[n+]1C)N(CC)CC`, the cell number change was -17.5%.

As to `COc1ccccc1CCNC(=O)CCn1c(=O)oc2ccccc21`, the AC50 under setting [1] is 32.6 µM [rising, single point].

As for `C/C(=N\NC(=O)c1ccccc1O)c1c(O)n(Cc2ccccc2)c(=O)[nH]c1=O`, the cell number change is -12%. In addition, the AC50 under setting [2] was 0.082 µM [falling, full curve, poor fit].

Regarding `Cc1cc(N2C(=O)C3CCCN3C2c2sccc2C)no1` (centres undefined), the cell number change worked out at 7.46%. Moreover, the AC50 under setting [2] was 0.00461 µM [falling, full curve, poor fit].

Regarding `C/C(=N\N=C(N)N)c1ccccc1`, the cell number change worked out at 17.1%. Besides, the AC50 under setting [1] was 0.517 µM [rising, full curve, poor fit].

For `N=C1c2ccccc2CN1NC(=O)c1ccccc1`, the AC50 under setting [1] was 2.06 µM [falling, partial curve].

Consider `CC(=O)c1cccc(NC(=O)N2C[C@H]3C[C@@H](C2)c2cccc(=O)n2C3)c1`, for which the cell number change is 23.4%. Further, the AC50 under setting [2] is 29.1 µM [rising, single point].

For the molecule `O=c1cccc2n1CC1CNC[C@H]2C1`, the cell number change is -30.7%. The half-maximal activity concentration (AC50) under setting [1] is 0.206 µM [falling, full curve]. The AC50 under setting [2] is 0.206 µM [falling, full curve].

As a reminder, the AC50 is the concentration giving half of the maximal activity seen. The low end stands for activity at low concentration, the high end for activity only at high concentration.
